From PMC3962457
Results are given in words; binding and its absence hold for the method and conditions named. In cells and extracts the contact can be indirect. Some results given as binding are weak or reduced against the parent protein; the word gives no strength.

The chains behind the UniProt entries cited, without tags or fusion partners. Residues count along the entry.
UniProt Q61501: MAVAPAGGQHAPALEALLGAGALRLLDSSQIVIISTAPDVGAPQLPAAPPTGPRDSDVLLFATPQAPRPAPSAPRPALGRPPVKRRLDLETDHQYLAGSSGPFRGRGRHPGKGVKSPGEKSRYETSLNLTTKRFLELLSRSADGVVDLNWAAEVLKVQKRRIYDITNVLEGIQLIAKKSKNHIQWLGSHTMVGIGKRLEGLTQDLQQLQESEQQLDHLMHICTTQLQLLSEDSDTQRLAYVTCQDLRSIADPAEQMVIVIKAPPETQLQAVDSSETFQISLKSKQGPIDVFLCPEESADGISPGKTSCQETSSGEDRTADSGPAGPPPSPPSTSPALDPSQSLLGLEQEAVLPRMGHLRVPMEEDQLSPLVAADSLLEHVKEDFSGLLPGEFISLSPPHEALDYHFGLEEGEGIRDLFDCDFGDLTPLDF
UniProt P30561, residues 10-848: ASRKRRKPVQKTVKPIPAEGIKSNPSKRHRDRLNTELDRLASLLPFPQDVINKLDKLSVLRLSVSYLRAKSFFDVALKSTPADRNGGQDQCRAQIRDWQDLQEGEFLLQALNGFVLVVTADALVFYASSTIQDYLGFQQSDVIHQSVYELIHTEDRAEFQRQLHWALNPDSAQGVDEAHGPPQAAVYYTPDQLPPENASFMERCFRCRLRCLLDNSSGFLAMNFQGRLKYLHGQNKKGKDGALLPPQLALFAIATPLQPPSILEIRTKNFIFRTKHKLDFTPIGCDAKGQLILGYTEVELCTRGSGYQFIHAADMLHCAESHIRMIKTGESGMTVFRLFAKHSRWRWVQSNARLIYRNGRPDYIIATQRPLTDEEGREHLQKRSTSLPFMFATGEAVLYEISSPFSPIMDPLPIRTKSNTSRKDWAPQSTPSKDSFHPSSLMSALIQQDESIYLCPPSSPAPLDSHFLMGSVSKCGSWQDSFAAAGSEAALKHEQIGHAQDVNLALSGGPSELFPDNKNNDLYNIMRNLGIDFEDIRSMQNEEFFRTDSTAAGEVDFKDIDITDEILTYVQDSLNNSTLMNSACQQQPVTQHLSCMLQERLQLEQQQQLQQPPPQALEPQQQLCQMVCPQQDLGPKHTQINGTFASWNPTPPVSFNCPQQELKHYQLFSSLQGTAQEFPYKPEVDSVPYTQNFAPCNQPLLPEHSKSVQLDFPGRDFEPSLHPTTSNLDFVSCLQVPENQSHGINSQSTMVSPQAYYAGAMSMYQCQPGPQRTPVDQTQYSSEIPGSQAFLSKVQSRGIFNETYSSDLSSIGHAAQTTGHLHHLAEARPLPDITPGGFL
UniProt O09106: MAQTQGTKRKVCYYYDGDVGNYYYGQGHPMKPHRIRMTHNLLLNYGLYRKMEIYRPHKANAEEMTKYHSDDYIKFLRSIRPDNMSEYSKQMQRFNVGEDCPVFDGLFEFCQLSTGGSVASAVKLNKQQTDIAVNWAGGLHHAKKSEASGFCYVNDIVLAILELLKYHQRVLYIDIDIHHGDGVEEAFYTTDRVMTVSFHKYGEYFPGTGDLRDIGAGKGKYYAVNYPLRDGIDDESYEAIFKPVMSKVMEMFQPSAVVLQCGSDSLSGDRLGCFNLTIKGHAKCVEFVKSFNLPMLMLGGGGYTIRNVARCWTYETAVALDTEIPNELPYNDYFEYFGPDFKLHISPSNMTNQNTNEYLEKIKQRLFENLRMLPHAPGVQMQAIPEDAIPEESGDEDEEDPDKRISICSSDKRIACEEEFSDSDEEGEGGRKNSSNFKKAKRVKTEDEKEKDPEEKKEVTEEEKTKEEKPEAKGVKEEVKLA

Key:
[1] = biological target: T1, retinoblastoma 2 (pRb2) (mouse (endogenous in MCVECs)) (UniProt Q64700); assay: co-IP; endogenous proteins from 200 ug of MCVEC protein, anti-pRb2 or anti-E2F1 antibody (2 ug), protein A and G agarose beads, Western blot of the precipitate; cells with or without 100 nM 3MC for 1 h
T1 sequence: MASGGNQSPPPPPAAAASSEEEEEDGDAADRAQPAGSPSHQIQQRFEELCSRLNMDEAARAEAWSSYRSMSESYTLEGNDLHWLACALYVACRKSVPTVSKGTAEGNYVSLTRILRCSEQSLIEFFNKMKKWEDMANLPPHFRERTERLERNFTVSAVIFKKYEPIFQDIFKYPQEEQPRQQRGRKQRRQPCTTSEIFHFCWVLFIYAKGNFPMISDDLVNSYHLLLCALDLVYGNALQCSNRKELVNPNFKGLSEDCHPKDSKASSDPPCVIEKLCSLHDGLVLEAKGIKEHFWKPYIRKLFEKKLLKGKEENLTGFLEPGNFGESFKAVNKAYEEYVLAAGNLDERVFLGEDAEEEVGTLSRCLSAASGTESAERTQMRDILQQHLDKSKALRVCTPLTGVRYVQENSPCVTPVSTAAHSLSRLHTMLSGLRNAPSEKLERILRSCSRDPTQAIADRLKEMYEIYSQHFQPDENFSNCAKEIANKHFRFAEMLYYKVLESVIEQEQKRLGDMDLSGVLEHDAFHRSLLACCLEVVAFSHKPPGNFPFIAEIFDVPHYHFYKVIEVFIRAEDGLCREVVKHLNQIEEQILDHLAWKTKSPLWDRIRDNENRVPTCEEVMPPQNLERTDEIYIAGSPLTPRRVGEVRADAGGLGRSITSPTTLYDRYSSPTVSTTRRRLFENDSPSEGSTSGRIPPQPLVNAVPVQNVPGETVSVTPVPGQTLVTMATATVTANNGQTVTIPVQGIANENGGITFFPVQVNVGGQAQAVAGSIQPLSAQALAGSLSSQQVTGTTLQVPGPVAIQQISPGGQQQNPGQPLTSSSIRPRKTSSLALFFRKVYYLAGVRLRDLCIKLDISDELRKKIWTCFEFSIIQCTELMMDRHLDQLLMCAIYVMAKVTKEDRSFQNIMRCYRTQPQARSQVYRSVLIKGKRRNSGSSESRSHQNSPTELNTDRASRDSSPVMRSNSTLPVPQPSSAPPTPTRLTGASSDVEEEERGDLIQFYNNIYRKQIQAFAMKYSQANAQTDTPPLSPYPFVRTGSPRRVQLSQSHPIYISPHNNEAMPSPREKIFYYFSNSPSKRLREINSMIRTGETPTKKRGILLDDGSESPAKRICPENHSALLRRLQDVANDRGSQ

[2] = biological target: E2F1 (mouse (endogenous in MCVECs)) (UniProt Q61501); assay: as above

With “aryl-hydrocarbon receptor (AhR) (from UniProt P30561 10-848)” the binding [1] was “binds” and the binding [2] was “binds”.

With “c-Raf (from UniProt Q99N57 1-648) (enzyme)” the binding [2] was “binds”.

With “histone deacetylase 1 (HDAC1) (from UniProt O09106 1-482) (enzyme)” the binding [2] was “binds”.
